Reference: the supplement of paper PMC10849652
The list shows a part of the results.

Amino acid sequences for entries named in this document (tags omitted). A change or cut given only in a name is not applied to a line headed by its entry.
UniProt O43482, whole entry, looked up: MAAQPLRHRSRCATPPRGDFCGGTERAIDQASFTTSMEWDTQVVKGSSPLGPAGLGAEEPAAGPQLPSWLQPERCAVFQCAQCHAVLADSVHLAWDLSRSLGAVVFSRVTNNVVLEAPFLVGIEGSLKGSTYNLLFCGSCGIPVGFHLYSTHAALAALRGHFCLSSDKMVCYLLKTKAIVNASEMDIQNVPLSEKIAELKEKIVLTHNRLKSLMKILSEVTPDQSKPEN
UniProt O43913: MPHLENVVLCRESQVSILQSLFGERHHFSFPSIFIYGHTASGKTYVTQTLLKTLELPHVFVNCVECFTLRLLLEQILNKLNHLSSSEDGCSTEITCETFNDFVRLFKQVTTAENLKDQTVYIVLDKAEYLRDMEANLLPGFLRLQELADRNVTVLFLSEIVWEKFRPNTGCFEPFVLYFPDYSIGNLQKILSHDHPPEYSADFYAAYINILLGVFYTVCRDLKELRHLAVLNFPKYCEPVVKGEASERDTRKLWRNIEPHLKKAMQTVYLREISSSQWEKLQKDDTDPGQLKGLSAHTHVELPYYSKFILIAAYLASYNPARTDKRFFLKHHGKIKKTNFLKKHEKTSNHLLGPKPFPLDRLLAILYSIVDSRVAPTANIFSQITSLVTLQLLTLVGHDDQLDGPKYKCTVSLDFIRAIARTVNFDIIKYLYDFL
UniProt P04181: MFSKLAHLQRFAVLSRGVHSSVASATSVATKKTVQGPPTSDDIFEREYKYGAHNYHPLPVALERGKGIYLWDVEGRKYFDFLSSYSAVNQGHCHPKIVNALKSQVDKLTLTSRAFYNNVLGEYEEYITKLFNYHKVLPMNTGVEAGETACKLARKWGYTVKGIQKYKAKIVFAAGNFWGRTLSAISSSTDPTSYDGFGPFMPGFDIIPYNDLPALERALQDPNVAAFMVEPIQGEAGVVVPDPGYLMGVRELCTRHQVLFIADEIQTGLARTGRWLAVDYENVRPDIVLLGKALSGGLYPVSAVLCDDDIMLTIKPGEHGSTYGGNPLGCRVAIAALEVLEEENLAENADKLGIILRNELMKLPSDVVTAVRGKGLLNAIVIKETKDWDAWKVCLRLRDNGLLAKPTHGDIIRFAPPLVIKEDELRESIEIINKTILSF
UniProt Q9BVL2: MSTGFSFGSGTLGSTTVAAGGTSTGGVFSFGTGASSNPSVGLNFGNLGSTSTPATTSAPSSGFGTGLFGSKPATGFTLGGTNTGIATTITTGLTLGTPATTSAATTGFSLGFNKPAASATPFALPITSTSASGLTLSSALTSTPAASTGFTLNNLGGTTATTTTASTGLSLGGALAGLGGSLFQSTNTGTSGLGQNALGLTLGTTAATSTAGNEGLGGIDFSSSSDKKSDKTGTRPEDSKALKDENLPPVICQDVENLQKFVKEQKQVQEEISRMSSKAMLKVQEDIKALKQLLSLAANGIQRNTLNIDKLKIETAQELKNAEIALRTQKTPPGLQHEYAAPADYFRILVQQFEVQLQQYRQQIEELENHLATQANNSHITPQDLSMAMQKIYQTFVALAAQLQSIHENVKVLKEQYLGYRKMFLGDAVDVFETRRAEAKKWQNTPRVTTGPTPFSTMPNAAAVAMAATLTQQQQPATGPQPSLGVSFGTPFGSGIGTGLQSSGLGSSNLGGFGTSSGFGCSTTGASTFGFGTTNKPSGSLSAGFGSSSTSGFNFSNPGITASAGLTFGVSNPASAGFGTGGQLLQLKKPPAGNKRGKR
UniProt P11940, whole entry, looked up: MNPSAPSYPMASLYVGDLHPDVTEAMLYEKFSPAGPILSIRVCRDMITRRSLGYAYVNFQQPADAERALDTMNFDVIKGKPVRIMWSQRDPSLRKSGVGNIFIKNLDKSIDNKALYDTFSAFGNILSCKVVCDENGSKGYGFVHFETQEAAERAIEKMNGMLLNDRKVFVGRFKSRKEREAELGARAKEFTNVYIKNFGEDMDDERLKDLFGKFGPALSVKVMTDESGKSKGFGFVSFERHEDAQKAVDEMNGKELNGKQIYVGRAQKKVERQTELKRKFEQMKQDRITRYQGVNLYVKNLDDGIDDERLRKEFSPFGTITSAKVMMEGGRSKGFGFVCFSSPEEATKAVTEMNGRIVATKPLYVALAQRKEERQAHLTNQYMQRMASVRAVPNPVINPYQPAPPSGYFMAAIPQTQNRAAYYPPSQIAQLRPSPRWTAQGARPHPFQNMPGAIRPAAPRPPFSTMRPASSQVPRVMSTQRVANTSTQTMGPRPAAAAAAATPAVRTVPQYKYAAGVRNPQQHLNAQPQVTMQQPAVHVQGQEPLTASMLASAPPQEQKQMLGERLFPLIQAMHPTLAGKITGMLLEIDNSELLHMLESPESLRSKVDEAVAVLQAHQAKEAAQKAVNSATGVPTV
UniProt Q9UQ80: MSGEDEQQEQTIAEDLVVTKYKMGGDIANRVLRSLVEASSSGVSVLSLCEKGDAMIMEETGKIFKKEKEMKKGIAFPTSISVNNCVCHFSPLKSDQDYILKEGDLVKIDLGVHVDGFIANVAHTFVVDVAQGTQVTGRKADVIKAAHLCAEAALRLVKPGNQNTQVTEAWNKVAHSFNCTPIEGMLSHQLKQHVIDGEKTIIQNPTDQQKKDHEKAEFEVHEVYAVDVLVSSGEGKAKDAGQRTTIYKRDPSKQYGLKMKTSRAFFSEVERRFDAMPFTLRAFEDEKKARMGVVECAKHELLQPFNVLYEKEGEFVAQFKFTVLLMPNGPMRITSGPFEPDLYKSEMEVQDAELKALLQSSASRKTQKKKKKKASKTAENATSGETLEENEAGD
UniProt Q9H813: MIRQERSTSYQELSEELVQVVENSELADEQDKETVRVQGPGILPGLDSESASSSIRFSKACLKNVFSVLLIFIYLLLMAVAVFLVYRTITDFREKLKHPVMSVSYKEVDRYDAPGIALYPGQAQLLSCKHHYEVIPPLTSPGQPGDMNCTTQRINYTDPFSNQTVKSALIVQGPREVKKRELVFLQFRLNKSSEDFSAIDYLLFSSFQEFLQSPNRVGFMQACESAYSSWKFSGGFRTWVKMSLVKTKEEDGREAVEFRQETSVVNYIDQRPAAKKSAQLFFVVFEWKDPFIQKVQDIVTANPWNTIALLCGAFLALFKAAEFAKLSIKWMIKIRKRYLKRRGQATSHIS
UniProt Q9BZF3: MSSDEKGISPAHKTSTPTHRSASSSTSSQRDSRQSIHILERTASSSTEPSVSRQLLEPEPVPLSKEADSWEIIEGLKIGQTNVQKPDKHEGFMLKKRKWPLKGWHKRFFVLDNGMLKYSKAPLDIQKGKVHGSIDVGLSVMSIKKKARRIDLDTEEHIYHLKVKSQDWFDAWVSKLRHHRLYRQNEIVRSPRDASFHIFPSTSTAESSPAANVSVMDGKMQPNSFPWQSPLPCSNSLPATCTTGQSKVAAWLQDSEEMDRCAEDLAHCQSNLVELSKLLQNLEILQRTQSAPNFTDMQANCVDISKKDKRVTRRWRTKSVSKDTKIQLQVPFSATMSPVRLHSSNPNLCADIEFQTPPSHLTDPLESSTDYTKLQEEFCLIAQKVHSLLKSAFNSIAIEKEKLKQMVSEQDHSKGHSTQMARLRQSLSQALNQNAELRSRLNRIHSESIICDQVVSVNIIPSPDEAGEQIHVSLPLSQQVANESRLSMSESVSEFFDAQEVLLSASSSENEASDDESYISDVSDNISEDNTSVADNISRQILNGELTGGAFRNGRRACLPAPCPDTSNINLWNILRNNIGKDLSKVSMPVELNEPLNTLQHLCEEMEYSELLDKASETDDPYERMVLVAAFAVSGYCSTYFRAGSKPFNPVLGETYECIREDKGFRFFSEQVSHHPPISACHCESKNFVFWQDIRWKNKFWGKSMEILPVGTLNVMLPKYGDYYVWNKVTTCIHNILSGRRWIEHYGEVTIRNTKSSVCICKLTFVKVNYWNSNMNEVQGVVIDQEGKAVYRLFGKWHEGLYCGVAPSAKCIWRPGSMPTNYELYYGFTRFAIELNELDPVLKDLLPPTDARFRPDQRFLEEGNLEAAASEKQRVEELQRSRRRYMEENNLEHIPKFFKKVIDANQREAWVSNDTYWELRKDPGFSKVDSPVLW
UniProt Q9NZT2: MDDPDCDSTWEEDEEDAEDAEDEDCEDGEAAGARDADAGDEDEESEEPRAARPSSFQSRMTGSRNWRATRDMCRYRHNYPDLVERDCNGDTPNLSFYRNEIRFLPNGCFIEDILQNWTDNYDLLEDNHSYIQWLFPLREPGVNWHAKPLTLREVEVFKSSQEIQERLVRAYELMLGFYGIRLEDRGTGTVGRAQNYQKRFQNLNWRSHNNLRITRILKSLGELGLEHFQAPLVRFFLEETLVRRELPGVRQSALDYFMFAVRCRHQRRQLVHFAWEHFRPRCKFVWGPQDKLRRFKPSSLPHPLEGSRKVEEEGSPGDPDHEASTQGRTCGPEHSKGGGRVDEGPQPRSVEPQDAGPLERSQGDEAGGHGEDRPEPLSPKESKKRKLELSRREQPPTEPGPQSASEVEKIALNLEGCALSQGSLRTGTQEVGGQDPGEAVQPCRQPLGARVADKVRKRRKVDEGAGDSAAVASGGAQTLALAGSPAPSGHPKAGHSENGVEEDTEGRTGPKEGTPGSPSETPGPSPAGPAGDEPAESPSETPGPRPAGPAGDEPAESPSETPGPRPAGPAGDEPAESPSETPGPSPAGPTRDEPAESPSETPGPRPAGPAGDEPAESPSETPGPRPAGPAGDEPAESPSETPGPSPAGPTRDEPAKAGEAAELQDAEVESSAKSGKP
UniProt P13674: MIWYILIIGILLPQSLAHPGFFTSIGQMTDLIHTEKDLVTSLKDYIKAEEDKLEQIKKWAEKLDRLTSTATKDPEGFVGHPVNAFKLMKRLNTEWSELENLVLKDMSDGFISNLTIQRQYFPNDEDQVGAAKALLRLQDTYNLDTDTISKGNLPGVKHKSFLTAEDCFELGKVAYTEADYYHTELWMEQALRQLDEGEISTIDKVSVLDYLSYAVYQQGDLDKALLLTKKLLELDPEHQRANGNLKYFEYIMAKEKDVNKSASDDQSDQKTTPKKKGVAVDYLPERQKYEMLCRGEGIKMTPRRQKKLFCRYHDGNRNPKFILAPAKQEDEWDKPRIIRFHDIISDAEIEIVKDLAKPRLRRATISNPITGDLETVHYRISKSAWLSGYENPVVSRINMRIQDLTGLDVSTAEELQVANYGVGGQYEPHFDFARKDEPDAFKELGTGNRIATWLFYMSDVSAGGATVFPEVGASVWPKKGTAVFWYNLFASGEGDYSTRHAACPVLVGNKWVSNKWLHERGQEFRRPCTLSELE
UniProt Q86U42: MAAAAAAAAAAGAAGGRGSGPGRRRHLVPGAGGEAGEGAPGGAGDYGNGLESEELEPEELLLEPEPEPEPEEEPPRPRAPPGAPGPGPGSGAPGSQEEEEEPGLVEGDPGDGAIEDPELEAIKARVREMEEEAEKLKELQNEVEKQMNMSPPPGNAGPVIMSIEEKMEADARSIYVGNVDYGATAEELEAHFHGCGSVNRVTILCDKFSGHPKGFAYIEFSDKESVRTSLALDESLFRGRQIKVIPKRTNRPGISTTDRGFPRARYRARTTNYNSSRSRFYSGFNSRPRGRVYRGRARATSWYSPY
UniProt Q02218: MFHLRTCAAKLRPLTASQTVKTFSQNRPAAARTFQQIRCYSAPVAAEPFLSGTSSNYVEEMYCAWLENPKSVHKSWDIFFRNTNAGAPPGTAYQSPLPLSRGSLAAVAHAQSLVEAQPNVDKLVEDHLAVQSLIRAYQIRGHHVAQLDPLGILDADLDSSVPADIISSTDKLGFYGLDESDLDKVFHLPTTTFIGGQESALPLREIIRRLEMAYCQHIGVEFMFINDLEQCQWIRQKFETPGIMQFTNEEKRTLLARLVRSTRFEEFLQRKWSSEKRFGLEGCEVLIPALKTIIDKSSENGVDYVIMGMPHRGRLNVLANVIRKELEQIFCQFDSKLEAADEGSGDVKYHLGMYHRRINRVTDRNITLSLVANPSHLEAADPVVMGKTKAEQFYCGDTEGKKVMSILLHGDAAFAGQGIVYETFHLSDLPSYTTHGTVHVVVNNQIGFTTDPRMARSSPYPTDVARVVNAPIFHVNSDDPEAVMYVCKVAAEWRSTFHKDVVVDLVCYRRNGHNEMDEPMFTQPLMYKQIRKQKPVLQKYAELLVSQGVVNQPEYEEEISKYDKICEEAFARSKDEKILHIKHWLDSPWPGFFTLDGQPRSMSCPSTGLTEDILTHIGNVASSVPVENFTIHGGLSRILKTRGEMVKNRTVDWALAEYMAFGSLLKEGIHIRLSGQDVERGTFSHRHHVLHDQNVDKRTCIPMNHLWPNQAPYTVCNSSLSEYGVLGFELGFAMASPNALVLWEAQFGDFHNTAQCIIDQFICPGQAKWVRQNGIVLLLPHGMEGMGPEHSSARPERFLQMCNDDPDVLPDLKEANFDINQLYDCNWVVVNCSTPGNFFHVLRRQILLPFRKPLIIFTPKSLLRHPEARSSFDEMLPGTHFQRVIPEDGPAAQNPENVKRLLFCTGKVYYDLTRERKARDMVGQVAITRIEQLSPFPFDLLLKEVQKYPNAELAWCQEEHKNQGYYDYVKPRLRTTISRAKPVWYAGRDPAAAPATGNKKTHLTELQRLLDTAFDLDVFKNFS

Experiments:
Test in all cases: log2 fold change, soluble protein after heating vs DMSO (PISA); higher = thermal stabilisation; K562 lysate, 10 uM; active = over 0.2 and 3.5 SD of the protein, either way, in both replicates (recomputed)
lapatinib = compound: CS(=O)(=O)CCNCc1ccc(-c2ccc3ncnc(Nc4ccc(OCc5cccc(F)c5)c(Cl)c4)c3c2)o1 [lapatinib]
Summary of the method: (§1)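 A 30 min treatment with 10 μM compound was applied to crude K562 extract at 1 mg/mL protein in PBS pH 7.4 with 1 mM MgCl2. Heating for 3 min spanned 48°C-58°C, after which aliquots were pooled, adjusted to 0.5% NP-40 at 4°C and spun at 21,000xg for 90 min. TMTpro 16plex LC-MS/MS of the supernatant, with channel sums equalised, gave values recorded as log-two fold change in thermal stability against solvent controls, from duplicates.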

pictilisib = compound: CS(=O)(=O)N1CCN(Cc2cc3nc(-c4cccc5[nH]ncc45)nc(N4CCOCC4)c3s2)CC1 [pictilisib]
Summary of the method: as §1

crizotinib = compound: C[C@@H](Oc1cc(-c2cnn(C3CCNCC3)c2)cnc1N)c1c(Cl)ccc(F)c1Cl [crizotinib]
Summary of the method: as §1

[1] = compound: C[C@H](C1=CC=C(C=C1)C(=O)NC2=C3C=CNC3=NC=C2)N
Summary of the method: as §1

duvelisib = compound: C[C@H](Nc1ncnc2nc[nH]c12)c1cc2cccc(Cl)c2c(=O)n1-c1ccccc1 [duvelisib]
Summary of the method: as §1

gandotinib = compound: Cc1cc(Nc2cc(CN3CCOCC3)c3nc(C)c(Cc4ccc(Cl)cc4F)n3n2)n[nH]1 [gandotinib]
Summary of the method: as §1

tozasertib = compound: Cc1cc(Nc2cc(N3CCN(C)CC3)nc(Sc3ccc(NC(=O)C4CC4)cc3)n2)n[nH]1 [tozasertib]
Summary of the method: as §1

doramapimod = compound: Cc1ccc(-n2nc(C(C)(C)C)cc2NC(=O)Nc2ccc(OCCN3CCOCC3)c3ccccc23)cc1 [doramapimod]
Summary of the method: as §1

bafetinib = compound: Cc1ccc(NC(=O)c2ccc(CN3CC[C@H](N(C)C)C3)c(C(F)(F)F)c2)cc1Nc1nccc(-c2cncnc2)n1 [bafetinib]
Summary of the method: as §1

[2] = compound: Cc1cccc(CC(=O)N2CCc3c2ccc(-c2cn(C)c4ncnc(N)c24)c3F)n1
Summary of the method: as §1

nilotinib = compound: Cc1cn(-c2cc(NC(=O)c3ccc(C)c(Nc4nccc(-c5cccnc5)n4)c3)cc(C(F)(F)F)c2)cn1 [nilotinib]
Summary of the method: as §1

[3] = compound: Cc1nc(Nc2n[nH]c3c2CN(C(=O)N[C@H](CN(C)C)c2ccccc2)C3(C)C)c2sccc2n1
Summary of the method: as §1

dasatinib = compound: Cc1nc(Nc2ncc(C(=O)Nc3c(C)cccc3Cl)s2)cc(N2CCN(CCO)CC2)n1 [dasatinib]
Summary of the method: as §1

[4] = compound: Cc1ncc(-c2ccnc(Nc3ccc(S(C)(=O)=O)cc3)n2)n1C(C)C
Summary of the method: as §1

[5] = compound: Cn1cc(-c2ccc3c(c2)CCN3C(=O)Cc2cccc(C(F)(F)F)c2)c2c(N)ncnc21
Summary of the method: as §1

quisinostat = compound: Cn1cc(CNCC2CCN(c3ncc(C(=O)NO)cn3)CC2)c2ccccc21 [quisinostat]
Summary of the method: as §1

tipifarnib = compound: Cn1cncc1[C@@](N)(c1ccc(Cl)cc1)c1ccc2c(c1)c(-c1cccc(Cl)c1)cc(=O)n2C [tipifarnib]
Summary of the method: as §1

[6] = compound: NC(=O)Nc1cc(-c2cccc(F)c2)sc1C(=O)N[C@H]1CCCNC1
Summary of the method: as §1

[7] = compound: NC(=O)c1cnc(N[C@@H]2CCCC[C@@H]2N)nc1Nc1cccc(-n2nccn2)c1
Summary of the method: as §1

[8] = compound: NC1(c2ccc(-c3nc4ccn5c(=O)[nH]nc5c4cc3-c3ccccc3)cc2)CCC1
Summary of the method: as §1

Target | log2 fold change (lapatinib) | log2 fold change (pictilisib) | log2 fold change (crizotinib) | log2 fold change [1] | log2 fold change (duvelisib) | log2 fold change (gandotinib) | log2 fold change (tozasertib) | log2 fold change (doramapimod) | log2 fold change (bafetinib) | log2 fold change [2] | log2 fold change (nilotinib) | log2 fold change [3] | log2 fold change (dasatinib) | log2 fold change [4] | log2 fold change [5] | log2 fold change (quisinostat) | log2 fold change (tipifarnib) | log2 fold change [6] | log2 fold change [7] | log2 fold change [8]
OIP5 (UniProt O43482) | inactive: 0.027 | inactive: 0 | inactive: -0.074 | inactive: -0.057 | inactive: -0.056 | inactive: 0.097 | inactive: -0.036 | inactive: 0.003 | inactive: -0.118 | inactive: 0.083 | inactive: 0.08 | inactive: 0.049 | inactive: -0.008 | inactive: 0.068 | inactive: -0.051 | inactive: -0.05 | inactive: 0.019 | inactive: -0.032 | inactive: -0.038 | inactive: -0.015
ORC5 (UniProt O43913) | inactive: -0.014 | inactive: -0.049 | inactive: -0.137 | inactive: -0.009 | inactive: -0.016 | inactive: -0.113 | inactive: -0.023 | inactive: 0.027 | inactive: -0.069 | inactive: 0.045 | inactive: -0.043 | inactive: -0.004 | inactive: -0.047 | inactive: 0.019 | inactive: 0.098 | inactive: -0.107 | inactive: -0.004 | inactive: 0.098 | inactive: 0.047 | inactive: -0.073
NUP85 (UniProt Q9BW27) | inactive: 0 | inactive: -0.026 | inactive: 0.001 | inactive: -0.052 | inactive: 0.001 | inactive: 0.005 | inactive: 0.02 | inactive: 0.011 | inactive: -0.065 | inactive: 0.081 | inactive: -0.003 | inactive: -0.02 | inactive: -0.12 | inactive: -0.002 | inactive: 0.019 | inactive: 0.026 | inactive: -0.011 | inactive: 0 | inactive: 0.023 | inactive: -0.004
OAT (UniProt P04181) | inactive: -0.02 | inactive: 0.021 | inactive: -0.034 | inactive: -0.066 | inactive: -0.025 | inactive: 0.063 | inactive: 0.01 | inactive: -0.029 | inactive: 0 | inactive: 0.044 | inactive: 0.012 | inactive: -0.038 | inactive: -0.033 | inactive: 0.003 | inactive: -0.012 | inactive: -0.002 | inactive: 0.024 | inactive: -0.01 | inactive: 0.019 | inactive: -0.018
NUP58 (UniProt Q9BVL2) | inactive: 0.046 | inactive: 0.008 | inactive: 0.047 | inactive: -0.08 | inactive: 0.024 | inactive: 0.005 | inactive: 0.012 | inactive: -0.02 | inactive: 0 | inactive: 0.036 | inactive: 0.008 | inactive: 0.065 | inactive: -0.001 | inactive: -0.012 | inactive: 0.011 | inactive: -0.007 | inactive: -0.068 | inactive: 0.029 | inactive: -0.008 | inactive: -0.003
PABPC1 (UniProt P11940) | inactive: -0.006 | inactive: 0.011 | inactive: 0.052 | inactive: 0.108 | inactive: -0.023 | inactive: -0.172 | inactive: 0.051 | inactive: -0.007 | inactive: 0.014 | inactive: -0.164 | inactive: -0.007 | inactive: -0.027 | inactive: 0.006 | inactive: 0.005 | inactive: 0.058 | inactive: 0.057 | inactive: 0.039 | inactive: -0.024 | inactive: 0.006 | inactive: 0.013
OPLAH (UniProt O14841) | inactive: -0.028 | inactive: 0.028 | inactive: 0.01 | inactive: -0.005 | inactive: -0.111 | inactive: -0.006 | inactive: -0.059 | inactive: 0.04 | inactive: -0.035 | inactive: 0.028 | inactive: 0.016 | inactive: -0.023 | inactive: 0.027 | inactive: 0.002 | inactive: 0.063 | inactive: 0.028 | inactive: 0.014 | inactive: 0.014 | inactive: -0.004 | inactive: 0.014
NUP214 (UniProt P35658) | inactive: 0.011 | inactive: -0.028 | inactive: 0.01 | inactive: -0.08 | inactive: -0.011 | inactive: 0.006 | inactive: -0.021 | inactive: -0.027 | inactive: -0.012 | inactive: 0.1 | inactive: -0.011 | inactive: 0 | inactive: -0.067 | inactive: -0.011 | inactive: -0.007 | inactive: -0.057 | inactive: -0.107 | inactive: 0.062 | inactive: 0.003 | inactive: 0.015
OSTC isoform 2 (UniProt Q9NRP0) | inactive: -0.066 | inactive: -0.038 | inactive: -0.116 | inactive: -0.016 | inactive: -0.012 | inactive: -0.027 | inactive: -0.019 | inactive: -0.032 | inactive: 0.009 | inactive: 0.203 | inactive: -0.003 | inactive: 0.015 | inactive: -0.072 | inactive: 0.031 | inactive: -0.05 | inactive: -0.106 | inactive: -0.037 | inactive: 0.045 | inactive: 0.023 | inactive: 0.044
PA2G4 (UniProt Q9UQ80) | inactive: -0.001 | inactive: 0.019 | inactive: 0.007 | inactive: 0.136 | inactive: 0.008 | inactive: -0.035 | inactive: -0.024 | inactive: -0.015 | inactive: 0.005 | inactive: -0.03 | inactive: 0.015 | inactive: -0.008 | inactive: 0.003 | inactive: 0.006 | inactive: 0.009 | inactive: 0.028 | inactive: 0.002 | inactive: 0.009 | inactive: -0.006 | inactive: 0
PACC1 (UniProt Q9H813) | inactive: 0.033 | inactive: -0.144 | inactive: -0.001 | inactive: -0.084 | inactive: -0.148 | inactive: 0.009 | inactive: 0.021 | inactive: -0.103 | inactive: 0.304 | inactive: -0.037 | inactive: -0.02 | inactive: -0.108 | inactive: 0.219 | inactive: 0.086 | inactive: -0.047 | inactive: -0.045 | inactive: 0.049 | inactive: 0.005 | inactive: 0.084 | inactive: 0.023
OSBPL6 isoform 5 (UniProt Q9BZF3) | inactive: 0.077 | inactive: 0.008 | active: 0.367 | inactive: -0.003 | inactive: -0.003 | inactive: 0.033 | inactive: 0.036 | inactive: 0.005 | inactive: 0.32 | inactive: 0.004 | inactive: 0.281 | inactive: 0.018 | inactive: -0.082 | inactive: -0.045 | inactive: 0.036 | inactive: -0.07 | inactive: -0.003 | inactive: 0.122 | inactive: 0.007 | inactive: -0.238
OGFR (UniProt Q9NZT2) | inactive: 0.014 | inactive: -0.012 | inactive: 0.052 | inactive: 0.128 | inactive: -0.008 | inactive: -0.062 | inactive: -0.043 | inactive: -0.012 | inactive: 0.043 | inactive: -0.037 | inactive: -0.016 | inactive: 0.021 | inactive: -0.022 | inactive: -0.005 | inactive: 0.042 | inactive: -0.004 | inactive: 0.04 | inactive: 0.02 | inactive: -0.001 | inactive: 0.028
P4HA1 (UniProt P13674) | inactive: -0.003 | inactive: -0.021 | inactive: 0.007 | inactive: 0.021 | inactive: -0.016 | inactive: -0.01 | inactive: 0.022 | inactive: -0.011 | inactive: -0.022 | inactive: 0.013 | inactive: 0.018 | inactive: -0.016 | inactive: -0.012 | inactive: 0.009 | inactive: 0.005 | inactive: 0.012 | inactive: -0.039 | inactive: -0.007 | inactive: 0.005 | inactive: -0.014
PABPN1 (UniProt Q86U42) | inactive: -0.034 | inactive: -0.034 | inactive: 0.136 | inactive: 0.043 | inactive: 0.096 | inactive: -0.196 | inactive: -0.038 | inactive: -0.044 | inactive: -0.097 | inactive: 0.162 | inactive: -0.119 | inactive: 0 | inactive: 0.019 | inactive: 0.031 | inactive: 0.016 | inactive: 0.07 | inactive: 0.073 | inactive: -0.08 | inactive: -0.057 | 
OGDH (UniProt Q02218) | inactive: 0.01 | inactive: -0.006 | inactive: -0.022 | inactive: -0.05 | inactive: -0.01 | inactive: -0.073 | inactive: -0.005 | inactive: 0.005 | inactive: -0.042 | inactive: 0.052 | inactive: -0.023 | inactive: 0.009 | inactive: -0.051 | inactive: 0.013 | inactive: 0.029 | inactive: 0.002 | inactive: 0.014 | inactive: 0.029 | inactive: -0.001 | inactive: -0.05

Some of the entries so far, with tabs:
Target	log2 fold change (lapatinib)	log2 fold change (pictilisib)	log2 fold change (crizotinib)	log2 fold change [1]	log2 fold change (duvelisib)	log2 fold change (gandotinib)	log2 fold change (tozasertib)	log2 fold change (doramapimod)	log2 fold change (bafetinib)	log2 fold change [2]	log2 fold change (nilotinib)	log2 fold change [3]	log2 fold change (dasatinib)	log2 fold change [4]	log2 fold change [5]	log2 fold change (quisinostat)	log2 fold change (tipifarnib)	log2 fold change [6]	log2 fold change [7]	log2 fold change [8]
OAT (UniProt P04181)	inactive: -0.02	inactive: 0.021	inactive: -0.034	inactive: -0.066	inactive: -0.025	inactive: 0.063	inactive: 0.01	inactive: -0.029	inactive: 0	inactive: 0.044	inactive: 0.012	inactive: -0.038	inactive: -0.033	inactive: 0.003	inactive: -0.012	inactive: -0.002	inactive: 0.024	inactive: -0.01	inactive: 0.019	inactive: -0.018
PABPN1 (UniProt Q86U42)	inactive: -0.034	inactive: -0.034	inactive: 0.136	inactive: 0.043	inactive: 0.096	inactive: -0.196	inactive: -0.038	inactive: -0.044	inactive: -0.097	inactive: 0.162	inactive: -0.119	inactive: 0	inactive: 0.019	inactive: 0.031	inactive: 0.016	inactive: 0.07	inactive: 0.073	inactive: -0.08	inactive: -0.057	
